Assay results as given in paper PMC7819943, “Rice protein-binding microarrays: a tool to detect cis-acting elements near promoter regions in rice”.
This is one part of the list.

These sequences were tested against T1, OsSMF1 (Oryza sativa, UniProt Q6ZLB0 1-436) (assay: protein-binding microarray (RPBM); PBS, 2% BSA, 51.3 ng/ul salmon testes DNA, 50 uM zinc acetate, 200 nM TF, 25 C, 1 h; high values mean tight binding). Conditions: protein: recombinant; tags: N-terminal polyhistidine and DsRed monomer fusion (pET32a); chain copies: 2; label: CyDye5-dUTP incorporated in the synthesized complementary strand; 3' TTTTT single-stranded linker to array surface; dsDNA, one strand shown.
T1 sequence: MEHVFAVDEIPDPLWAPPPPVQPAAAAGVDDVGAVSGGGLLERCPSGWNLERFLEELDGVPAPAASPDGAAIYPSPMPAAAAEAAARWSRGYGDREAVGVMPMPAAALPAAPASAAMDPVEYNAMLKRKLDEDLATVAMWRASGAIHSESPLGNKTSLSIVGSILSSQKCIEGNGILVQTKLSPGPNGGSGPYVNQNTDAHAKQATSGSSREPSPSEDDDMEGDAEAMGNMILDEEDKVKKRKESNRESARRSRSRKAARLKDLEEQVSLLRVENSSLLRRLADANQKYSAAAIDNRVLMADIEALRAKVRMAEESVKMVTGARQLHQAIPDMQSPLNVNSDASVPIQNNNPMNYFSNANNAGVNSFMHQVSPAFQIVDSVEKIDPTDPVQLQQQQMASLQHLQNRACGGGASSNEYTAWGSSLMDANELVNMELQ
Summary of the method: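 An Axon 4000B scanner gave the binding signal as per-feature fluorescence intensity in arbitrary units. This followed washing of a custom Agilent array that had been incubated for 1 h at 25 °C with 200 nM protein in PBS, 2% BSA, salmon testes DNA and 50 µM zinc acetate. The proteins were transcription factors fused at the N-terminus to polyhistidine and DsRed, expressed in E. coli BL21-CodonPlus and purified on Ni–NTA.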

Sequence	binding signal
ATTTTGGATGTGATGAACTGATGATGATGCGTGCGTGGCACGGAGTCACCTAGTGCAG	7270 fluorescence intensity (a.u.)
CGGCCGATGCTCCCCGTCACCACTGACGCGCCCCTCCACCCGGAGTCACCTAGTGCAG	6530 fluorescence intensity (a.u.)
GATATTGCCCTTGAGCTGTCAGCATTAGTAGGCTATTTAACGGAGTCACCTAGTGCAG	3720 fluorescence intensity (a.u.)
ACGAATAGTAATTTGTGAATAAAACTTTTATATACGTGTTCGGAGTCACCTAGTGCAG	4890 fluorescence intensity (a.u.)
GGAGGCGATGGGGCCCACCAGTCAGCCACACGTCTCCCACCGGAGTCACCTAGTGCAG	3650 fluorescence intensity (a.u.)
GTGGACGTGGGGTTGTACACGTCGTCGTCGGGGCATGGGCCGGAGTCACCTAGTGCAG	6280 fluorescence intensity (a.u.)
GATTAGTCATCCGTGACGGGCTCCTTACTACGCTGGTTTGCGGAGTCACCTAGTGCAG	4530 fluorescence intensity (a.u.)
AAAGTTAAAACTTACTCTCTCGGGTATCGGCGACCTTGTACGGAGTCACCTAGTGCAG	3210 fluorescence intensity (a.u.)
TCACATATACATTCACAATTTCACATCCACCGGATTGAGACGGAGTCACCTAGTGCAG	33500 fluorescence intensity (a.u.)
CCCAAAGGCCCATGACAGGTGATGCAGCATCTTGTTTCTTCGGAGTCACCTAGTGCAG	4350 fluorescence intensity (a.u.)
ACAGTACTATCTAATCACCACGTGGTTAGCTTCGATTAATCGGAGTCACCTAGTGCAG	5570 fluorescence intensity (a.u.)
TCAACTTGCAGAGGCAAATCAAGAAGGTATGTTGAGTGCTCGGAGTCACCTAGTGCAG	23700 fluorescence intensity (a.u.)
AAAGACCTTAGTTTTGACTGTGTATGTTTAACGCATGACCCGGAGTCACCTAGTGCAG	4440 fluorescence intensity (a.u.)
GCAGAGACATCGGACAGATACGTGTAATATCAACCATCGGCGGAGTCACCTAGTGCAG	4940 fluorescence intensity (a.u.)
AGGATGATCAGGGCAAGGAGAAGAAGAAGAAGCAACCCACCGGAGTCACCTAGTGCAG	4140 fluorescence intensity (a.u.)
GATTGCTTACGTATGGCTATCAAAAGTGTATTAAACTCGTCGGAGTCACCTAGTGCAG	5760 fluorescence intensity (a.u.)
GCCGGAGCTCGTCGCCGTACAGGCGCAGCCCCATGGCGGACGGAGTCACCTAGTGCAG	3790 fluorescence intensity (a.u.)
CGGTGACGACCACCCCACCTCACGATCCAACGGCCAATACCGGAGTCACCTAGTGCAG	4080 fluorescence intensity (a.u.)
TTGATTGTATTAACACTTGTGGCAATGACCACGTGGGACCCGGAGTCACCTAGTGCAG	7960 fluorescence intensity (a.u.)
ATGTGTCCTCATGTTTGGCGTGTCCCTTCTGACTGATTCGCGGAGTCACCTAGTGCAG	4210 fluorescence intensity (a.u.)
CAACCATGAGGGGAGGGGAGGCCATAGTGGAGGACTGGAGCGGAGTCACCTAGTGCAG	3700 fluorescence intensity (a.u.)

Sequence	binding signal
AAACGTCGCCAACGTAACGTCCAGTCCGCGCTCCCTGCAACGGAGTCACCTAGTGCAG	3680 fluorescence intensity (a.u.)
AGAACACAATAACTTTTGCACAATTGTCACAACGGCTAGTCGGAGTCACCTAGTGCAG	3970 fluorescence intensity (a.u.)
GCCTGGAATGTATCTGGCTGGGGCTGACGTGCCAACTCCACGGAGTCACCTAGTGCAG	10500 fluorescence intensity (a.u.)
CCGCGTGGAGCTCCCTGACACGTGGGACCCACCAAACCTCCGGAGTCACCTAGTGCAG	12000 fluorescence intensity (a.u.)
TCATGGATTGGCAGCACGCTATCCTGGACGTCATTGTTTCCGGAGTCACCTAGTGCAG	4040 fluorescence intensity (a.u.)
CAACGATTTTGGATGGCAGTTTCACTAACGTGGTAACTACCGGAGTCACCTAGTGCAG	3160 fluorescence intensity (a.u.)
AGGTAGTGTTTGGCACGCACATCAGCGCATTTCTTGTGGTCGGAGTCACCTAGTGCAG	4330 fluorescence intensity (a.u.)
ACGAACGAACTGACCAGTCAGCAGTAGTAGTCCAGCGGAACGGAGTCACCTAGTGCAG	5250 fluorescence intensity (a.u.)
CATTGTTCGTGAAAGTAATAGTTCGGTCGATGACTCGGACCGGAGTCACCTAGTGCAG	35800 fluorescence intensity (a.u.)
AATCATTTTGTCATCCAAGTGTGATGAGAAGATCATGATACGGAGTCACCTAGTGCAG	3380 fluorescence intensity (a.u.)
CGACCCAACCGTTTGACTCACATAATAGTGAATCAAATCACGGAGTCACCTAGTGCAG	3170 fluorescence intensity (a.u.)
TACACACGTACGATGTGGACGTGTTCACAAAACGAATCCCCGGAGTCACCTAGTGCAG	5050 fluorescence intensity (a.u.)
AAGCGAGCGCCACGTGGCGTGTGATGTGGACACTCCGGAACGGAGTCACCTAGTGCAG	21300 fluorescence intensity (a.u.)
ATTTATTAGGGCAGCGTAGTGTGTCAGCTGTCTTGTGGAACGGAGTCACCTAGTGCAG	3720 fluorescence intensity (a.u.)
AATAAGTTGCATCCCATTGGTAGGTACAATTGTATAAATTCGGAGTCACCTAGTGCAG	20600 fluorescence intensity (a.u.)
GGATTAACAGTTTTGTGAATCAGCTTGAATTCTGTGTGTGCGGAGTCACCTAGTGCAG	3720 fluorescence intensity (a.u.)
TGGGAGGCCTTGCTGACAGTACTGCAATATGGACTGCTTCCGGAGTCACCTAGTGCAG	3330 fluorescence intensity (a.u.)
GAGAGAGAGGAAGAGTGGAAGAGTATGACACGTGGGTCCCCGGAGTCACCTAGTGCAG	7920 fluorescence intensity (a.u.)
TTGTAGCAAGATCCCAATCATAATAGATGATGGCAAATGCCGGAGTCACCTAGTGCAG	17100 fluorescence intensity (a.u.)
TTTAGTAACGGGCCGAACTAGTCACGCGTGCTGGCCACACCGGAGTCACCTAGTGCAG	4830 fluorescence intensity (a.u.)
CTTAATTAATATATATTTGTGAAGACCTAACTTCGAGTCCCGGAGTCACCTAGTGCAG	3460 fluorescence intensity (a.u.)

3 records drawn at random from those above, as already listed:
Sequence	binding signal
ACAGTACTATCTAATCACCACGTGGTTAGCTTCGATTAATCGGAGTCACCTAGTGCAG	5570 fluorescence intensity (a.u.)
GATTGCTTACGTATGGCTATCAAAAGTGTATTAAACTCGTCGGAGTCACCTAGTGCAG	5760 fluorescence intensity (a.u.)
ATTTATTAGGGCAGCGTAGTGTGTCAGCTGTCTTGTGGAACGGAGTCACCTAGTGCAG	3720 fluorescence intensity (a.u.)
